Test results: patent US20090082389A1, “PESTICIDAL SUBSTITUTED PIPERIDINES” (priority 2005, published 2009)
Some results were stated once for a whole list of compounds, not compound by compound.

Tested on: Rhipicephalus sanguineus
Assay: Screening method to test contact activity against Rhipicephalus sanguineus (brown dog tick), larvae (L1) on treated filter paper
Assay type: in vivo
Conditions: test concentration of 1000 ppm, assessed 24 hours after application in comparison with the untreated control

Compound	contact control of Rhipicephalus sanguineus
FC(F)(F)c1ccc(CN2CCC3(CC2)OCCO3)cc1 [Compound 11-22, 8-(4-Trifluoromethyl-benzyl)-1,4-dioxa-8-aza-spiro[4.5]decane]	at least 80%
OC1CCN(Cc2ccc(C(F)(F)F)cc2)CC1 [Compound 14-82, 1-(4-Trifluoromethyl-benzyl)-piperidin-4-ol]	at least 80%
CCC(=O)OC1CCN(Cc2ccc(C(F)(F)F)cc2)CC1 [Compound 16-82, Propionic acid 1-(4-Trifluoromethyl-benzyl)-piperidin-4-yl ester]	at least 80%
FC(F)(F)c1ccc(CN2CCc3ccccc3C2)cc1 [Compound 21-82, 2-(4-Trifluoromethyl-benzyl)-1,2,3,4-tetrahydro-isoquinoline]	at least 80%
Fc1cccc(N2CCc3ccccc3C2)n1 [Compound 23-05, 2-(6-Fluoropyridin-2-yl)-1,2,3,4-tetrahydro-isoquinoline]	at least 80%
